Source: patent publication US20140286976A1 (ARGEN X B V, published 2014)
These are yes or no findings as the source states them, for the method shown. Some entries that bind do so weakly or less than the wild type.

By UniProt entry, the sequences of proteins in these tests, tags left out. Residues count along the entry.
UniProt P14210, residues 32-728: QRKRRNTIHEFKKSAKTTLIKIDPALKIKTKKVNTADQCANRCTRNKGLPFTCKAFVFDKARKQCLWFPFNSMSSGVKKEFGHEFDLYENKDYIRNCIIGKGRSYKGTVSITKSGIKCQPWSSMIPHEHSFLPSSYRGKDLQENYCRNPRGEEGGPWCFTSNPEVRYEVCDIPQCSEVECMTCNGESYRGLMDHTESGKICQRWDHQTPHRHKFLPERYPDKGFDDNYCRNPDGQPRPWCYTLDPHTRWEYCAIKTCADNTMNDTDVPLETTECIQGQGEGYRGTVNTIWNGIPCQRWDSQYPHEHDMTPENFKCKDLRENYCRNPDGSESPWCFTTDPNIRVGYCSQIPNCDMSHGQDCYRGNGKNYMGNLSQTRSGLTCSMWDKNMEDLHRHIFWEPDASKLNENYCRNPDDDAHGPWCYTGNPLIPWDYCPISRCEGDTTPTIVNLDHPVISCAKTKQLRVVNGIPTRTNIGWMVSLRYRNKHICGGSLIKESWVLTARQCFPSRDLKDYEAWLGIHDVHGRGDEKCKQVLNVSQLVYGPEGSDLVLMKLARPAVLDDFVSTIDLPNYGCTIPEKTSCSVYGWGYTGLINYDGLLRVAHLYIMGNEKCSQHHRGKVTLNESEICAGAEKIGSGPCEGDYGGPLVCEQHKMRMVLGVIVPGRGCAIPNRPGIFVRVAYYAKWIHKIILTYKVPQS

Legend:
[1] = molecular target: LP6 (aa497-909) (llama/human chimera) (UniProt P08581); experiment: SPR; HGF coupled on CM-5 chip, c-Met chimera at 10 µg/ml injected
[2] = molecular target: LP7* (aa523-909) (llama/human chimera) (UniProt P08581); experiment: as above
[3] = molecular target: LS5 (aa1-448) (llama/human chimera) (UniProt P08581); experiment: as above
[4] = molecular target: LI8 (aa540-909) (llama/human chimera) (UniProt P08581); experiment: as above
[5] = molecular target: LI10 (aa608-909) (llama/human chimera) (UniProt P08581); experiment: as above
[6] = molecular target: LS1 (aa1-98) (llama/human chimera) (UniProt P08581); experiment: as above
[7] = molecular target: LS2 (aa1-199) (llama/human chimera) (UniProt P08581); experiment: as above
[8] = molecular target: LI11 (aa634-909) (llama/human chimera) (UniProt P08581); experiment: as above
[9] = molecular target: LS4 (aa1-348) (llama/human chimera) (UniProt P08581); experiment: as above
[10] = molecular target: LI9 (aa572-909) (llama/human chimera) (UniProt P08581); experiment: as above
[11] = molecular target: LS3 (aa1-287) (llama/human chimera) (UniProt P08581); experiment: as above
[12] = molecular target: Human c-Met ECD (Flag and strep tag) (human) (UniProt P08581); experiment: SPR; HGF coupled on CM-5 chip, c-Met protein at 10 µg/ml injected

Measured: binding

HGF (from UniProt P14210 32-728) (ligand)
binds: all assays above
